# According to patent publication US10188754B2, “Compositions and methods for chemical exchange saturation transfer (CEST) based magnetic resonance imaging (MRI)” (THE JOHNS HOPKINS UNIVERSITY, priority 2013, dated 2019):
# Where two headings read alike, the source gives them in different places. For some assays here: For at least one compound, name, drawing or mass did not settle the structure. Some of these results come from one statement about several compounds together.
# Columns and labels:
# [1] = type: physicochemical; conditions: 10 mM, pH 7.3-7.4, tsat = 3 sec, ω1 = 3.6 μT, 37° C.
# [2] = pH 7.1-7.4, B1=3.6 μT, Tsat=3 s, 37° C., 11.7 T
# [3] = 10 mM, pH 7.3-7.4
structure (smiles),measurement,setting,value
O=C(O)c1ccc(C(=O)O)c(O)c1 [Compound 18],Signal (ppm),"[1]; Table 2, listed as compound 18",slightly downfield
"O=C(O)c1ccccc1Nc1cccc(C(F)(F)F)c1 [Compound 5, flufenamic acid, reference compound]",CEST frequency / labile proton chemical shift from water,[2],4.8 ppm
O=C(O)c1ccc(O)cc1O [Compound 16],Signal (ppm),"[1]; Table 2, listed as compound 16",slightly downfield
"O=C(O)c1c(O)ccc2ccccc12 [Compound 20, 2-hydroxy-l-naphthoic acid]","exchange rate, times faster compared with salicylic acid",[3],11-12 times
CS(=O)(=O)Nc1ccc(N)cc1C(=O)O [Compound 38],Signal (ppm),"[1]; Table 5, listed as compound 38",6.3-7.8 ppm
"COc1cccc(O)c1C(=O)O [Compound 21, 6-methoxysalicylic acid]","exchange rate, times faster compared with salicylic acid",[3],11-12 times
Cc1ccc(S(=O)(=O)Nc2ccccc2C(=O)O)cc1 [Compound 40],Signal (ppm),"[1]; Table 5, listed as compound 40",6.3-7.8 ppm
CS(=O)(=O)Nc1ccccc1C(=O)O [Compound 39],Signal (ppm),"[1]; Table 5, listed as compound 39",6.3-7.8 ppm
